Laboratory results taken from the supplement of paper PMC11732987, “Enantioselective OTUD7B fragment discovery through chemoproteomics screening and high-throughput optimisation” (Communications Chemistry, 2025).
The other results are listed elsewhere or left out. The data scatter; read single values as rough.

Chains of the proteins cited; added tags and fusions are not shown. Lines headed by an entry give the natural chain unless they say otherwise; changes in a name come on top.
UniProt Q13315: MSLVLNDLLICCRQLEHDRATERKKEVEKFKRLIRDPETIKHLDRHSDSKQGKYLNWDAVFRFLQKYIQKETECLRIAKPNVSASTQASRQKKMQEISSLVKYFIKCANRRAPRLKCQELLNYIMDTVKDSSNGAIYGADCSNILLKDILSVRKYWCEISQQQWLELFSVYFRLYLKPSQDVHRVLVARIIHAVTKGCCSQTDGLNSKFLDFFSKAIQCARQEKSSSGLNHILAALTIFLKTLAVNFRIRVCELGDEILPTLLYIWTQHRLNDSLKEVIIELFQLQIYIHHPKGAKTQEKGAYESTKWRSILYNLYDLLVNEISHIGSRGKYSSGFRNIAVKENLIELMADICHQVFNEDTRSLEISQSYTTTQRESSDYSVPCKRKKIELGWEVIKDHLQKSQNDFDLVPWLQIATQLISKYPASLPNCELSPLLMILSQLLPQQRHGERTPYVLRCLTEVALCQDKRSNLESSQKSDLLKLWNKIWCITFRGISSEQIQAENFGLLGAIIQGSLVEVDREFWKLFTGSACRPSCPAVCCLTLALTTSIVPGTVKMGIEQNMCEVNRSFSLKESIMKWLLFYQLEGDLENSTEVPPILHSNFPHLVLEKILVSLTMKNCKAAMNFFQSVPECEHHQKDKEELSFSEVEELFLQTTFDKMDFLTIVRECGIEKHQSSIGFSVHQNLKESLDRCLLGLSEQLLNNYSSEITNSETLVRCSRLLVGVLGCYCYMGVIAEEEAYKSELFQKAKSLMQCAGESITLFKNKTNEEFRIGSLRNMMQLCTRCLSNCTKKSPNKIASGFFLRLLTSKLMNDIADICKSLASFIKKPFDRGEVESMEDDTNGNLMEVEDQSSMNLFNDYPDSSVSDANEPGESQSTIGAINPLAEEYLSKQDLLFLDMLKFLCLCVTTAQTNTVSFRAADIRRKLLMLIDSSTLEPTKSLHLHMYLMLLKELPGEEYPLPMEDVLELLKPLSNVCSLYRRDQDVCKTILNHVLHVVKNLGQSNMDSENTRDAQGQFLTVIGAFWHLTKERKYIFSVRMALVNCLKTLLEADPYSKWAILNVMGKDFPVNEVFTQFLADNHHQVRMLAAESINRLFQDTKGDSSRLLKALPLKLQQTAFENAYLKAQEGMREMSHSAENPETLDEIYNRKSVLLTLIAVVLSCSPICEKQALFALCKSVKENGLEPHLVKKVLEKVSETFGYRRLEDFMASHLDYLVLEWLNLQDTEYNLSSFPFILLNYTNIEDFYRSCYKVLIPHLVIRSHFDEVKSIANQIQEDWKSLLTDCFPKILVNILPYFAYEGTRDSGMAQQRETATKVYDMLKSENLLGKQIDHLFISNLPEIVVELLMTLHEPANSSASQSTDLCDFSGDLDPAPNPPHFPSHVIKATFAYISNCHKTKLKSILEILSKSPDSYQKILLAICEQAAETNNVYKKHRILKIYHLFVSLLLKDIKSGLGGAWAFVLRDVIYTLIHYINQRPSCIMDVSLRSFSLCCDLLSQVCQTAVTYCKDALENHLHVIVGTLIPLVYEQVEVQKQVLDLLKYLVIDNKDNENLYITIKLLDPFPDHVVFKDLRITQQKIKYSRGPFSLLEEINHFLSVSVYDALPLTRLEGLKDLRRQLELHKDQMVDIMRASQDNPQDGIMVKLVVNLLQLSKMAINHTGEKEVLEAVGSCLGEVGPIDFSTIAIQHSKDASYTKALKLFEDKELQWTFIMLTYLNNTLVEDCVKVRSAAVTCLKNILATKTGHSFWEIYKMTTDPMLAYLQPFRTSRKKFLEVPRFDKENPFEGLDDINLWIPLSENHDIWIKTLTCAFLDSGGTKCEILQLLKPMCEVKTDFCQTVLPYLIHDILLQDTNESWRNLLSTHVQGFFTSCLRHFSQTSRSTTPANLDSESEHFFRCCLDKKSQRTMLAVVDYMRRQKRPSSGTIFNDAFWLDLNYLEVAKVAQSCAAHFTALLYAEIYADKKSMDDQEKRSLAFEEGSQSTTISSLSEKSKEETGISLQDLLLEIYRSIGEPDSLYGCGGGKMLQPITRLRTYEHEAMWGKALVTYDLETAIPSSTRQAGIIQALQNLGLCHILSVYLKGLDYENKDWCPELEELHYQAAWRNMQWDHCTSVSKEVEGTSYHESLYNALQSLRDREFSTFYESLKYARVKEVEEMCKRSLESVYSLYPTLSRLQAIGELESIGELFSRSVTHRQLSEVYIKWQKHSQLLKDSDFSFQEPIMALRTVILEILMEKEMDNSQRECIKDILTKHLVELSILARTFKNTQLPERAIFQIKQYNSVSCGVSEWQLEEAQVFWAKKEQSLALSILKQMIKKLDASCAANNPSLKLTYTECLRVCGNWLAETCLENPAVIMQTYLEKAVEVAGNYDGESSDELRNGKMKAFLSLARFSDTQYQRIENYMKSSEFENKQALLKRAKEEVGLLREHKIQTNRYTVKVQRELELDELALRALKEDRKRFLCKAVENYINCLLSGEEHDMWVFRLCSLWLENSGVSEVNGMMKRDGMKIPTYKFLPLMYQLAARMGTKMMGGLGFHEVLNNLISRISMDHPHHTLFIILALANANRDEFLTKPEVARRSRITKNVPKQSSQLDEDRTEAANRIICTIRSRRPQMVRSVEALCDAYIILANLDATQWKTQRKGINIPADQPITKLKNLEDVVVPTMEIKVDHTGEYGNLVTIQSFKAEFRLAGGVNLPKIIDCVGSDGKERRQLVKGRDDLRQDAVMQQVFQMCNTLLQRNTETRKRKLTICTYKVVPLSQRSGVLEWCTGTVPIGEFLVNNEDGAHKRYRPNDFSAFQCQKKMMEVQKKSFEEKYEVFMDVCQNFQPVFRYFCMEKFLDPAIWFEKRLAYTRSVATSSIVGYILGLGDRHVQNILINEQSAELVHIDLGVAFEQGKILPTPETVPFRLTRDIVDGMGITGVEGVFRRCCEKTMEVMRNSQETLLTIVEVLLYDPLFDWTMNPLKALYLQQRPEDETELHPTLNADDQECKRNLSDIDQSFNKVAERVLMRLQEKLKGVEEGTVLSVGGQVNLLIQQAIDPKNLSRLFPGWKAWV
UniProt Q8TBE0: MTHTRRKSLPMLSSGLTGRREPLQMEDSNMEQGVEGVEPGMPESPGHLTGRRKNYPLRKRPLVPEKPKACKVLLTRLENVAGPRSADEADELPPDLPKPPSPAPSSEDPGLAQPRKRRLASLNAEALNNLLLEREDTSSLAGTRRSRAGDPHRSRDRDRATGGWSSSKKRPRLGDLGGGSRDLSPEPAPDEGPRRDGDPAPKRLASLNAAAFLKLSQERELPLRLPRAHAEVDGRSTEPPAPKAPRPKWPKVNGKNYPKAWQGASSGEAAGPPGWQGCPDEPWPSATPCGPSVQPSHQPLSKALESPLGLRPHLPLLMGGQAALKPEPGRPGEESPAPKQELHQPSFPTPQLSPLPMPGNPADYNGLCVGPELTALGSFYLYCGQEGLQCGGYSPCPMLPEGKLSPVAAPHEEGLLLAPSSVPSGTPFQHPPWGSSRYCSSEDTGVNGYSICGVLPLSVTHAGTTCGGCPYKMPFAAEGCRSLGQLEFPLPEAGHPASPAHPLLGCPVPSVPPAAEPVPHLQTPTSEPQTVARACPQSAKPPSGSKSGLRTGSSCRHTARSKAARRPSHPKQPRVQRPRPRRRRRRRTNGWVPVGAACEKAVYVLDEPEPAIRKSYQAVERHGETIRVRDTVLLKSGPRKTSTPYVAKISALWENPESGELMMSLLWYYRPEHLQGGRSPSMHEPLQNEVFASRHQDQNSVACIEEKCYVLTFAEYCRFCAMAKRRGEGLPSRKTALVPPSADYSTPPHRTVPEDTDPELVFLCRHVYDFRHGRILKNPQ
UniProt Q9P281: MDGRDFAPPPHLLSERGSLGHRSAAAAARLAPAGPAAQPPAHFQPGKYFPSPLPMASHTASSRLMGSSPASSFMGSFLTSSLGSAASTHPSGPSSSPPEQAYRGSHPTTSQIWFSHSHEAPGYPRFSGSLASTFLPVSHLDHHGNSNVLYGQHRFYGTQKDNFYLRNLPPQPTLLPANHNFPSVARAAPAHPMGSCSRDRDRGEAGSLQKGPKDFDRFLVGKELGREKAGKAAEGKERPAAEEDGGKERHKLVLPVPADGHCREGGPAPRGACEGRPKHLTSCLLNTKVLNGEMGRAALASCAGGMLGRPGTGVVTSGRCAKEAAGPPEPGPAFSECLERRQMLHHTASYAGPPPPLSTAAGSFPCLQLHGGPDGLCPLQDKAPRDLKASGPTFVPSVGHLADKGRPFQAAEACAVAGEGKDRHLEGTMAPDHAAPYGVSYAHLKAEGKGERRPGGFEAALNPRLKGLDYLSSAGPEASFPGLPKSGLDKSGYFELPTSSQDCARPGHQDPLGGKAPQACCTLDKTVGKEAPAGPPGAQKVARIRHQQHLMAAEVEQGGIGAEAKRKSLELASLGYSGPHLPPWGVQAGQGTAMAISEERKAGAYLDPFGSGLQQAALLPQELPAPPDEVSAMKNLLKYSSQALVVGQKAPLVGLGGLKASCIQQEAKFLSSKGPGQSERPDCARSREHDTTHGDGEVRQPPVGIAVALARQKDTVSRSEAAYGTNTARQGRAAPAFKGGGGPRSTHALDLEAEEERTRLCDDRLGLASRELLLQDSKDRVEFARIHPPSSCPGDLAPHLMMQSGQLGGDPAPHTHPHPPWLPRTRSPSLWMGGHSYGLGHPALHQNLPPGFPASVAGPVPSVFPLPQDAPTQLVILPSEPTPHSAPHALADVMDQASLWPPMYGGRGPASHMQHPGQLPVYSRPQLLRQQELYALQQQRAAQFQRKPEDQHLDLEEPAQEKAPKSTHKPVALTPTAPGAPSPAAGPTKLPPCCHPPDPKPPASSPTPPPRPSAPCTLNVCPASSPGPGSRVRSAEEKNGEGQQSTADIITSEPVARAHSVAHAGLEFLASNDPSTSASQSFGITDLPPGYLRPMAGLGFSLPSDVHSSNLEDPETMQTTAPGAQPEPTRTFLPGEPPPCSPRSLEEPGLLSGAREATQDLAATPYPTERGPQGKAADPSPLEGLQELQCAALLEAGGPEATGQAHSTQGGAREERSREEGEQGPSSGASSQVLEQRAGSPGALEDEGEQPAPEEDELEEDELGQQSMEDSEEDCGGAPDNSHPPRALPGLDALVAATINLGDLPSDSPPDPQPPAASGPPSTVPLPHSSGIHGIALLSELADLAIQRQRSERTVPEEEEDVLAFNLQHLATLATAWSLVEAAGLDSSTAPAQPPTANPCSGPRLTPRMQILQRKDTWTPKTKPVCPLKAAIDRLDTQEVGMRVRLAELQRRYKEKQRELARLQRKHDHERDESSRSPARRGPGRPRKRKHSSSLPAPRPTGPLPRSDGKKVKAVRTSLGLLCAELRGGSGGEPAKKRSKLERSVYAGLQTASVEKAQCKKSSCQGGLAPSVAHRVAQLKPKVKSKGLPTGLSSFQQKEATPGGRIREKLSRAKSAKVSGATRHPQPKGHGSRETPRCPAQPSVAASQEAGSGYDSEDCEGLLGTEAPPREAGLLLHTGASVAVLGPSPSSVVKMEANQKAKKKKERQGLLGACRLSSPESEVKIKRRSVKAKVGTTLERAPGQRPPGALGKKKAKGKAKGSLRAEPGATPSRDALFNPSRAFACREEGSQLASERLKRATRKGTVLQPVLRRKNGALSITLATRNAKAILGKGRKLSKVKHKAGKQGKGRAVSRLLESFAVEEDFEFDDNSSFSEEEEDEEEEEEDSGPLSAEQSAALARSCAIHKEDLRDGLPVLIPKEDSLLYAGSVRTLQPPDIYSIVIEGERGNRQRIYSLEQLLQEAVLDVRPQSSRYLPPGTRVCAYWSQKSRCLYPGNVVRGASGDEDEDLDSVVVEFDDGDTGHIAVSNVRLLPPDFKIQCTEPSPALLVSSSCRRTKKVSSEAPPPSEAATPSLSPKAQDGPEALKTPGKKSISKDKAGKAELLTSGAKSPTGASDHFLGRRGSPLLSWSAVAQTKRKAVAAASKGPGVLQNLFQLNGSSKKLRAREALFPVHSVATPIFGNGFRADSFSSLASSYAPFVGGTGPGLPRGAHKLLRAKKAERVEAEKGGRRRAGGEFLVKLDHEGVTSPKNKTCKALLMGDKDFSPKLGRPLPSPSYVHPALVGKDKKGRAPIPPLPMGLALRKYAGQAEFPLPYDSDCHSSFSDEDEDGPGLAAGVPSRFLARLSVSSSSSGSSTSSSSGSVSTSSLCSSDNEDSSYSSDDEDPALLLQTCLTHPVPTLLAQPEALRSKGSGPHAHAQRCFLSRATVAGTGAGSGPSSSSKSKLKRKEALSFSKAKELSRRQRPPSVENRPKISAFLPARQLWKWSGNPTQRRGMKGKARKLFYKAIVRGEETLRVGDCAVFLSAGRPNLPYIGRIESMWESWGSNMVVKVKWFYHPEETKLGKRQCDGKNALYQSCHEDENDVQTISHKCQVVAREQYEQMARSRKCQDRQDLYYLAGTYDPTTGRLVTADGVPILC

Assays:
[1] = compound: ClCC(=O)N[C@@H]1CCCc2ccccc12; assay: log2 mean competition ratio of IA-DTB cysteine labelling (DMSO/compound) (log2 ratio); higher = stronger cysteine engagement by compound; settings: treatment time: 4 h, cell line lysate: HEK293T
Description: (§1)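 IA-DTB competitive cysteine chemoproteomics in HEK293T RIPA lysate. Lysates were treated with compound 29 or 30 at 50 or 200 µM for 4 h, then IA-DTB (500 µM, 1 h), trypsin-digested, NeutrAvidin-enriched and analysed by diaPASEF. Competition ratio = intensity DMSO / intensity compound (n=4 treated, n=64 DMSO); binding: mean log2 CR ≥ 1 and p ≤ 0.05 plus QC filters. Target is the cysteine site.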

[2] = compound: ClCC(=O)N[C@H]1CCCc2ccccc12; assay: as above; settings: treatment time: 4 h, cell line lysate: HEK293T
Description: as §1

Row | Target | log2 mean competition ratio ([1]; 50 µM) | log2 mean competition ratio ([1]; 200 µM) | log2 mean competition ratio ([2]; 50 µM) | log2 mean competition ratio ([2]; 200 µM)
1 | ATM C2704 (UniProt Q13315) | -0.134 | -0.226 | -0.0123 | -0.00461
2 | ASPM C3177 (UniProt Q8IZT6) | 0.107 | -0.146 | -0.0672 | -0.0199
3 | ATP5F1E;ATP5F1EP2 C19;(C19) | 0.0392 | -0.368 | 0.755 | 0.00592
4 | ATAD5 C556 (UniProt Q96QE3) | -0.0469 | 0.219 | 0.0134 | 0.165
5 | BAHD1 C598 (UniProt Q8TBE0) | 0.121 | 0.0397 | -0.652 | 0.0224
6 | ATM C384 (UniProt Q13315) | -0.138 | 0.184 | 0.325 | 0.269
7 | BAHCC1 C683 (UniProt Q9P281) | 0.428 | -0.0868 | -0.0585 | 0.218
8 | BEND3 C767 (UniProt Q5T5X7) | 0.105 | -0.00794 | -0.259 | -0.26

Whole records as entered above. Order of values: log2 mean competition ratio ([1]; 50 µM)	log2 mean competition ratio ([1]; 200 µM)	log2 mean competition ratio ([2]; 50 µM)	log2 mean competition ratio ([2]; 200 µM)
BAHD1 C598 (UniProt Q8TBE0) in the list: 0.121	0.0397	-0.652	0.0224
ATAD5 C556 (UniProt Q96QE3) in the list: -0.0469	0.219	0.0134	0.165
